In PubChem BioAssay AID220 (DTP/NCI, 2004):
The list does not hold the whole screen: it gathers tests that were run many times, whatever their T/C, doses with no T/C, and many T/C values between a quarter and a half above the control. Further doses and runs are listed elsewhere. T/C is the treated group as % of the vehicle group. Schedule codes are those of the source, taken here to give the interval after Q, in days (D) or hours (H), and the number of doses after X. Some doses were run more than once; the values are given in rising order. Some T/C values are negative: the treated tumours shrank. Some T/C values carry the count of animals alive at the toxicity check (mostly the fifth day); without a count, all were alive then. Some entries give survivors of the animals treated and no T/C: the source files T/C as zero there, which appears to mark a toxic dose or a test without result, not a measured value. Counts of survivors are from the toxicity check (mostly the fifth day) where no day follows; animals may have died later.

Test system: CD8F1 mice, subcutaneous mammary adenocarcinoma, T/C%
Experiment: NCI In Vivo Anticancer Drug Screen. Data for tumor model Mammary Adenocarcinoma CD8F1 (subcutaneous) in CD8F1
Conditions: higher T/C = larger tumour
How it was run: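 Transplantable tumors were established in mice, animals were dosed with compound or vehicle, and survival or tumor size was then measured in both groups. The treated result was divided by the control result.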

[1] = T/C endpoint: median tumor weight change, dose: 250.0 mg/kg/injection, schedule: Q01DX001 (ip), vehicle: saline with Tween-80
[2] = T/C endpoint: median tumor weight change, dose: 500.0 mg/kg/injection, schedule: Q01DX001 (ip), vehicle: saline with Tween-80

Question: Which T/C (T/C endpoint: median tumor weight (est.), dose: 1.25 mg/kg/injection, schedule: Q04DX005 (ip), vehicle: saline, evaluated on day 30) does the source give for `c1ccc([P+](c2ccccc2)(c2ccccc2)c2ccccc2)cc1` here?
Answer: 126 % of control

Question: And the T/C (T/C endpoint: median tumor weight (est.), dose: 1.25 mg/kg/injection, schedule: Q07DX004 (ip), vehicle: saline, evaluated on day 30)?
Answer: 145 % of control [9 of 10 alive]

Question: And the T/C (T/C endpoint: median tumor weight (est.), dose: 5.0 mg/kg/injection, schedule: Q07DX004 (ip), vehicle: saline, evaluated on day 30)?
Answer: 136 % of control [8 of 10 alive]

Question: What about the survivor count (T/C endpoint: median tumor weight (est.), dose: 5.0 mg/kg/injection, schedule: Q07DX005 (ip), vehicle: saline) of the same compound?
Answer: 6 of 10

Question: For `CC/C(=C(\c1ccccc1)c1ccc(OCCN(C)C)cc1)c1ccccc1`, which survivor count (T/C endpoint: median tumor weight change, dose: 400.0 mg/kg/injection, schedule: Q01DX001 (ip), vehicle: suspension in saline) is on record?
Answer: 5 of 10 on day 35

Question: For `Cc1ccc2c(ccc(CC(=S)[S-])[n+]2C)c1`, which T/C (T/C endpoint: median tumor weight (est.), dose: 25.0 mg/kg/injection, schedule: Q07DX005 (ip), vehicle: Klucel (hydroxypropylcellulose) (HPC), evaluated on day 30) is on record?
Answer: 137 % of control [9 of 10 alive on day 30]

Question: And the survivor count (T/C endpoint: median tumor weight (est.), dose: 200.0 mg/kg/injection, schedule: Q07DX005 (ip), vehicle: Klucel (hydroxypropylcellulose) (HPC))?
Answer: 3 of 10 on day 30

Question: And the survivor count (T/C endpoint: median tumor weight (est.), dose: 400.0 mg/kg/injection, schedule: Q07DX005 (ip), vehicle: Klucel (hydroxypropylcellulose) (HPC))?
Answer: 0 of 10 on day 30

Question: For `[Cl][Pt+2][Cl].[NH-]C1CCC1.[NH2-]`, which survivor count (T/C endpoint: median tumor weight change, dose: 25.0 mg/kg/injection, schedule: Q01DX001 (ip), vehicle: suspension in saline) is on record?
Answer: 6 of 10 on day 31

Question: What about the survivor count (T/C endpoint: median tumor weight change, dose: 50.0 mg/kg/injection, schedule: Q01DX001 (ip), vehicle: suspension in saline) of the same compound?
Answer: 3 of 10 on day 31

Question: And the survivor count (T/C endpoint: median tumor weight change, dose: 100.0 mg/kg/injection, schedule: Q01DX001 (ip), vehicle: suspension in saline)?
Answer: 0 of 10 on day 31

Question: For `CCN(CC)Cc1cc2[nH]c3c4ccc(Cl)cc4ncc3c2cc1OC`, which survivor count [1] is on record?
Answer: 0 of 10 on day 29

Question: What about the survivor count [2] of the same compound?
Answer: 0 of 10 on day 29

Question: How did the survivor count [1] turn out when `CC(=O)CC(C)=O.CC(=O)CC(C)=O.O=N[O-].O=N[O-].[Co]` was run?
Answer: 0 of 10 on day 43

Question: What about the survivor count [2] of the same compound?
Answer: 0 of 10 on day 43

Question: What about the survivor count (T/C endpoint: median tumor weight change, dose: 1000.0 mg/kg/injection, schedule: Q01DX001 (ip), vehicle: saline with Tween-80) of the same compound?
Answer: 0 of 10 on day 43

Question: For `C1OC1CO[C@@H]1CO[C@H]2[C@@H]1OC[C@H]2OCC1CO1` (some centres not stated), which survivor count (T/C endpoint: median tumor weight (est.), dose: 800.0 mg/kg/injection, schedule: Q07DX005 (ip), vehicle: suspension in saline) is on record?
Answer: 0 of 10 on day 30

Question: What does the source list for `O=NN(CCCl)C(=O)NC1OC(CO)C(O)C(O)C1O` (configuration not stated)?
Answer: survivor count (T/C endpoint: median tumor weight (est.), dose: 20.0 mg/kg/injection, schedule: Q07DX005 (ip), vehicle: saline): 4 of 10 on day 30; survivor count (T/C endpoint: median tumor weight (est.), dose: 40.0 mg/kg/injection, schedule: Q07DX005 (ip), vehicle: saline): 0 of 10 on day 30

Question: With `NC(=O)NO` as the compound, how does the T/C (T/C endpoint: median tumor weight (est.), dose: 50.0 mg/kg/injection, schedule: Q07DX005 (ip), vehicle: saline, evaluated on day 30) read?
Answer: 133 % of control

Question: What does the source list for `O=CC(O)C(O)C(O)C(O)C(=O)O.[NH-]C1CCCCC1[NH-].[Pt+2]` (configuration not stated)?
Answer: survivor count (T/C endpoint: median tumor weight (est.), dose: 25.0 mg/kg/injection, schedule: Q07DX005 (ip), vehicle: suspension in saline): 3 of 10 on day 30; survivor count (T/C endpoint: median tumor weight (est.), dose: 50.0 mg/kg/injection, schedule: Q07DX005 (ip), vehicle: suspension in saline): 0 of 10 on day 30 and 1 of 10 on day 30; survivor count (T/C endpoint: median tumor weight (est.), dose: 100.0 mg/kg/injection, schedule: Q07DX005 (ip), vehicle: suspension in saline): 0 of 10 on day 30; survivor count (T/C endpoint: median tumor weight (est.), dose: 200.0 mg/kg/injection, schedule: Q07DX005 (ip), vehicle: suspension in saline): 0 of 10 on day 30

Question: With `Cn1c(=O)c2ncnnc2n(C)c1=O` as the compound, how does the survivor count (T/C endpoint: median tumor weight (est.), dose: 37.5 mg/kg/injection, schedule: Q07DX005 (ip), vehicle: Klucel (hydroxypropylcellulose) (HPC)) read?
Answer: 0 of 10 on day 30

Question: What about the survivor count (T/C endpoint: median tumor weight (est.), dose: 75.0 mg/kg/injection, schedule: Q07DX005 (ip), vehicle: Klucel (hydroxypropylcellulose) (HPC)) of the same compound?
Answer: 0 of 10 on day 30

Question: With `CC(=O)C1=C(O)C2(O)C(=O)c3c(c(C)c4ccc(C)c(O)c4c3O)CC2C(N)C1=O` (configuration not stated) as the compound, how does the survivor count (T/C endpoint: median tumor weight change, dose: 150.0 mg/kg/injection, schedule: Q01DX001 (ip), vehicle: saline + alcohol) read?
Answer: 2 of 10 on day 28

Question: What about the survivor count (T/C endpoint: median tumor weight change, dose: 300.0 mg/kg/injection, schedule: Q01DX001 (ip), vehicle: saline + alcohol) of the same compound?
Answer: 0 of 10 on day 28 and 3 of 10 on day 24

Question: And the survivor count (T/C endpoint: median tumor weight change, dose: 600.0 mg/kg/injection, schedule: Q01DX001 (ip), vehicle: saline + alcohol)?
Answer: 0 of 10 on day 24 and 0 of 10 on day 28

Question: For `S=P(N1CC1)(N1CC1)N1CC1`, which survivor count (T/C endpoint: median tumor weight (est.), dose: 16.0 mg/kg/injection, schedule: Q07DX005 (ip), vehicle: saline) is on record?
Answer: 6 of 10 on day 30

Question: Which T/C (T/C endpoint: median tumor weight change, dose: 12.5 mg/kg/injection, schedule: Q01DX001 (ip), vehicle: saline, evaluated on day 43) does the source give for `CC1(C)COCN1COCCOCN1COCC1(C)C` here?
Answer: 135 % of control

Question: What about the survivor count (T/C endpoint: median tumor weight change, dose: 200.0 mg/kg/injection, schedule: Q01DX001 (ip), vehicle: saline) of the same compound?
Answer: 2 of 10 on day 43

Question: What about the survivor count (T/C endpoint: median tumor weight change, dose: 500.0 mg/kg/injection, schedule: Q01DX001 (ip), vehicle: saline) of the same compound?
Answer: 1 of 10 on day 26

Question: What about the survivor count (T/C endpoint: median tumor weight change, dose: 1000.0 mg/kg/injection, schedule: Q01DX001 (ip), vehicle: saline) of the same compound?
Answer: 0 of 10 on day 26

Question: `COc1cc(OC)c(NC(=O)ON2C(=O)c3ccccc3C2=O)cc1Cl` was tested. Which T/C (T/C endpoint: median tumor weight change, dose: 250.0 mg/kg/injection, schedule: Q01DX001 (ip), vehicle: saline with Tween-80, evaluated on day 25) did it give?
Answer: 148 % of control

Question: Which T/C (T/C endpoint: median tumor weight (est.), dose: 72.0 mg/kg/injection, schedule: Q07DX005 (ip), vehicle: DMSO, evaluated on day 30) does the source give for `CC1(C)CC23C4COC(=O)C2CCC1C3CC4=O` (configuration not stated) here?
Answer: 126 % of control

Question: And the survivor count (T/C endpoint: median tumor weight (est.), dose: 144.0 mg/kg/injection, schedule: Q07DX005 (ip), vehicle: DMSO)?
Answer: 6 of 10 on day 30

Question: For `COc1cccc2c1C(=O)c1c(O)c3c(c(O)c1C2=O)C[C@@](O)(C(C)=O)C[C@@H]3OC1CC(N(C)C)C(O)C(C)O1` (some centres not stated), which T/C (T/C endpoint: median tumor weight change, dose: 5.0 mg/kg/injection, schedule: Q01DX001 (ip), vehicle: water, evaluated on day 29) is on record?
Answer: 66 and 69 % of control

Question: What about the T/C (T/C endpoint: median tumor weight change, dose: 5.0 mg/kg/injection, schedule: Q01DX001 (ip), vehicle: water, evaluated on day 30) of the same compound?
Answer: 113 % of control

Question: What about the T/C (T/C endpoint: median tumor weight change, dose: 5.0 mg/kg/injection, schedule: Q01DX001 (ip), vehicle: water, evaluated on day 33) of the same compound?
Answer: 130 % of control

Question: And the T/C (T/C endpoint: median tumor weight change, dose: 5.0 mg/kg/injection, schedule: Q01DX001 (ip), vehicle: water, evaluated on day 34)?
Answer: 76 % of control

Question: And the T/C (T/C endpoint: median tumor weight change, dose: 10.0 mg/kg/injection, schedule: Q01DX001 (ip), vehicle: water, evaluated on day 29)?
Answer: 91 [9 of 10 alive on day 29] and 92 % of control

Question: And the T/C (T/C endpoint: median tumor weight change, dose: 10.0 mg/kg/injection, schedule: Q01DX001 (ip), vehicle: water, evaluated on day 30)?
Answer: 85 % of control

Question: What about the T/C (T/C endpoint: median tumor weight change, dose: 10.0 mg/kg/injection, schedule: Q01DX001 (ip), vehicle: water, evaluated on day 33) of the same compound?
Answer: 96 % of control

Question: And the T/C (T/C endpoint: median tumor weight change, dose: 10.0 mg/kg/injection, schedule: Q01DX001 (ip), vehicle: water, evaluated on day 34)?
Answer: 51 % of control

Question: What about the T/C (T/C endpoint: median tumor weight change, dose: 20.0 mg/kg/injection, schedule: Q01DX001 (ip), vehicle: water, evaluated on day 29) of the same compound?
Answer: 38 and 44 % of control

Question: And the T/C (T/C endpoint: median tumor weight change, dose: 20.0 mg/kg/injection, schedule: Q01DX001 (ip), vehicle: water, evaluated on day 30)?
Answer: 46 % of control

Question: What about the T/C (T/C endpoint: median tumor weight change, dose: 20.0 mg/kg/injection, schedule: Q01DX001 (ip), vehicle: water, evaluated on day 33) of the same compound?
Answer: 38 % of control

Question: What about the T/C (T/C endpoint: median tumor weight change, dose: 20.0 mg/kg/injection, schedule: Q01DX001 (ip), vehicle: water, evaluated on day 34) of the same compound?
Answer: 47 % of control

Question: And the T/C (T/C endpoint: median tumor weight change, dose: 40.0 mg/kg/injection, schedule: Q01DX001 (ip), vehicle: water, evaluated on day 29)?
Answer: -32 [8 of 10 alive on day 29] and -19 % of control [9 of 10 alive on day 29]

Question: And the T/C (T/C endpoint: median tumor weight change, dose: 40.0 mg/kg/injection, schedule: Q01DX001 (ip), vehicle: water, evaluated on day 30)?
Answer: 10 % of control

Question: And the T/C (T/C endpoint: median tumor weight change, dose: 40.0 mg/kg/injection, schedule: Q01DX001 (ip), vehicle: water, evaluated on day 33)?
Answer: -73 % of control

Question: And the T/C (T/C endpoint: median tumor weight change, dose: 40.0 mg/kg/injection, schedule: Q01DX001 (ip), vehicle: water, evaluated on day 34)?
Answer: 1 % of control [7 of 10 alive on day 34]

Question: What about the survivor count (T/C endpoint: median tumor weight change, dose: 80.0 mg/kg/injection, schedule: Q01DX001 (ip), vehicle: water) of the same compound?
Answer: 0 of 10 on day 29, 0 of 10 on day 33, 0 of 10 on day 34, 1 of 10 on day 30

Question: For `Cc1cc(O)c2c(c1O)C(=O)C13C(=C2O)C(=O)C2C(O)C1C1C(O)C3C(=O)C3=C(O)c4c(O)cc(C)c(O)c4C(=O)C321` (configuration not stated), which survivor count (T/C endpoint: median tumor weight change, dose: 62.5 mg/kg/injection, schedule: Q01DX001 (ip), vehicle: saline with Tween-80) is on record?
Answer: 4 of 10 on day 31

Question: What about the survivor count (T/C endpoint: median tumor weight change, dose: 125.0 mg/kg/injection, schedule: Q01DX001 (ip), vehicle: saline with Tween-80) of the same compound?
Answer: 4 of 10 on day 31

Question: What about the survivor count [1] of the same compound?
Answer: 0 of 10 on day 31
